Values of other authors, collected in patent US12262990B2, “Methods and materials for prolonged sweat stimulation” (priority 2016, dated 2025).
For at least one compound, name, drawing or mass did not settle the structure.

Legend:
Nicotinic receptor = tested on: Nicotinic receptor; design: key to the marks not given beside the values; settings: class symbols, key not given; cited from earlier work
Muscarinic receptor = tested on: Muscarinic receptor; design: key to the marks not given beside the values; settings: class symbols, key not given; cited from earlier work

In the case of `CC(=O)OCC[N+](C)(C)C` [Acetylcholine], the “Receptor Activity Nicotinic” value (Nicotinic receptor) is listed as “+++” and the “Receptor Activity Muscarinic” value (Muscarinic receptor) is listed as “+++”.
